Measurements reported in PubChem BioAssay AID743454 (Peter MacCallum Cancer Centre, 2014).
Purpose: 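Knock-downs lowering viability or raising caspase 3/7 activity in vorinostat-treated resistant cells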 (primary screen). Cell system: human HCT116-VR colon cancer cells, selected for vorinostat resistance. Knock-down reagent: siRNA pool against human genes, 40 nM siRNA pool. Timing: vorinostat for 24 h, read-out about 72 h after transfection. Conditions: vorinostat at 2.5 µM final. Read-out: 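Two measures, CellTiter-Fluor viability and luminescent caspase 3/7 activity, each as fold change against same-plate mock wells, mean of duplicates, then screen-wide robust z-score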. Direction: viability robust z-score: higher = more viable cells than screen typical; caspase robust z-score: higher = more caspase 3/7 activity than screen typical. Active means: 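a knock-down is a hit when classed RV1 or RV2 for lowered viability, or CA1 or CA2 for caspase activation; those lethal without drug were dropped; hits were retested singly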.
The deposit covers about 18,000 reagents; this is an unselected part. 450 of them (2.5%) count as active. 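Single biological run; no consistent viability z cut-off exists, so the class columns, not z-scores, define the calls.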

RPUSD4 [SID152153095] — viability hit class: no change; caspase hit class: no change; viability robust z-score: -0.45; caspase robust z-score: -0.15; outcome: inactive
SLC30A2 [SID135621399] — viability hit class: no change; caspase hit class: no change; viability robust z-score: -0.2; caspase robust z-score: 0.68; outcome: inactive
ADGRG7 [SID135621023] — viability hit class: no change; caspase hit class: no change; viability robust z-score: 0.77; caspase robust z-score: -0.68; outcome: inactive
MPHOSPH9 [SID134324917] — viability hit class: no change; caspase hit class: no change; viability robust z-score: -0.1; caspase robust z-score: -1; outcome: inactive
COL4A1 [SID135622160] — viability hit class: no change; caspase hit class: no change; viability robust z-score: 0.89; caspase robust z-score: -0.05; outcome: inactive
SYNM [SID152151147] — viability hit class: no change; caspase hit class: no change; viability robust z-score: 1.1; caspase robust z-score: -0.63; outcome: inactive
PGPEP1 [SID152153397] — viability hit class: no change; caspase hit class: no change; viability robust z-score: -0.96; caspase robust z-score: 0.44; outcome: inactive
ABL2 [SID152153611] — viability hit class: no change; caspase hit class: no change; viability robust z-score: 0.68; caspase robust z-score: -0.3; outcome: inactive
AMIGO2 [SID152152244] — viability hit class: no change; caspase hit class: no change; viability robust z-score: 0.48; caspase robust z-score: -0.92; outcome: inactive
MOGAT2 [SID134313608] — viability hit class: no change; caspase hit class: no change; viability robust z-score: -0.32; caspase robust z-score: 0.75; outcome: inactive
KCNH6 [SID134311654] — viability hit class: no change; caspase hit class: no change; viability robust z-score: -2.23; caspase robust z-score: 2.76; outcome: inactive
P4HA1 [SID135620802] — viability hit class: no change; caspase hit class: no change; viability robust z-score: 1.19; caspase robust z-score: -0.36; outcome: inactive
ZNF257 [SID152152293] — viability hit class: no change; caspase hit class: no change; viability robust z-score: 0.94; caspase robust z-score: -0.48; outcome: inactive
ABHD17B [SID152147665] — viability hit class: no change; caspase hit class: no change; viability robust z-score: 0.84; caspase robust z-score: 0.48; outcome: inactive

Ordered by “caspase robust z-score” (ascending): 2 of the entries above.
MPHOSPH9 [SID134324917] — viability hit class: no change; caspase hit class: no change; viability robust z-score: -0.1; caspase robust z-score: -1; outcome: inactive
COL4A1 [SID135622160] — viability hit class: no change; caspase hit class: no change; viability robust z-score: 0.89; caspase robust z-score: -0.05; outcome: inactive
